Measurements published in PubChem BioAssay AID1347075 (National Center for Advancing Translational Sciences (NCATS), 2019).
Screen size: about 400,000 compounds; about 5,500 (1.4%) were called active. The inconclusive results got no clear call from the source; some entries with a clear call stand among them for comparison. Calls follow the shape of the dose curve; as a rule, active = well fitted cell-killing curve with a large enough effect; inconclusive = small, poorly fitted or top-dose-only effect, or effect the other way; inactive = flat fitted curve, though single readings scatter. A potency beside an inconclusive call is a rough fit, not a confirmed value.

Experiment: qHTS assay for MDR1-selective chemotherapeutics: Primary screen using the parental adenocarcinoma cell KB-3-1; also: nearly all actives have a fitted effect of over 60% in size
Conditions: KB-3-1 viability, CellTiter-Glo ATP luminescence, 72 h; activity change, negative = cytotoxic: at 46.1 µM (top of the series)
Method in brief: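 Parental KB-3-1 viability, qHTS format: 72 h compound exposure, 37 °C; CellTiter-Glo; media-only wells and DMSO plates as controls; concentration-effect fits on corrected data.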
% is scaled to controls: 0 for no effect and ±100 for the full control effect; potency is read from the fitted curve at half-maximal effect.

Row | SMILES | Potency | activity change, negative = cytotoxic
1 | Cc1ccc(S(=O)(=O)N(C)c2ccc(C(=O)N3CCN(Cc4ccc5c(c4)OCO5)CC3)cc2)cc1 | active: 11.6 µM | –
2 | CCNC(=S)N/N=C/c1ccc(OCC(=O)Nc2ccc(OC)cc2)c(OC)c1 | inconclusive: 16.4 µM [rising, partial curve, poor fit] | –
3 | COc1ccc(CN(C)C(=O)c2[nH]c(C)c(C(C)=O)c2C)cc1F | – | inactive: -1.62%
4 | CC(=O)Nc1ccc(-c2nnc(SCc3ccccc3)n2C)cc1 | – | inconclusive: 0%
5 | COc1cc(Cc2cc(OC)c(O)c(OC)c2)cc(OC)c1O | inconclusive: 20.6 µM [cytotoxic, single point] | –
6 | C=CC[n+]1c(-c2ccc(OC)cc2)csc1NNC(=O)Nc1ccccc1 | – | inactive: -16.8%
7 | CCCCNc1ccc(/C=C2\C=Cc3ccccc32)cc1 | inconclusive: 29.1 µM [rising, single point] | –
8 | CCNC(=S)Nc1cc(C)ccn1 | – | inactive: 17.5%
9 | O=[N+]([O-])c1ccc(NN=Cc2ccc(O)cc2O)nc1 | inconclusive: 4.11 µM [cytotoxic, full curve, poor fit] | –
10 | Cc1ccccc1-n1nnnc1SCC(=O)c1c(N)n(C2CC2)c(=O)[nH]c1=O | – | inactive: -3.97%
11 | Cc1ccc2nc(CSc3nnc(Nc4ccccc4F)s3)cc(=O)n2c1 | inconclusive: 29.1 µM [cytotoxic, single point] | –
12 | C/C(CC(=O)Nc1ccc(OCc2ccccc2)cc1)=N\NC(=O)C(=O)Nc1cccc(C)c1 | inconclusive: 23.1 µM [cytotoxic, single point] | –
13 | O=C(Nc1cc([N+](=O)[O-])ccc1O)c1ccc2c(c1)C(=O)N(Cc1ccco1)C2=O | – | inactive: -2.88%
14 | Cc1ccc(NC(=O)Nc2ccc3c(c2)CCC3)cc1C | inconclusive: 2.06 µM [cytotoxic, partial curve, poor fit] | –
15 | COc1ccc(-c2cn[nH]c2-c2ccc(OCc3ccccc3F)cc2O)cc1OC | inconclusive: 32.6 µM [cytotoxic, single point] | –
16 | COC(=O)C1=C(O)CSC1=Nc1ccccc1 | inconclusive: 29.1 µM [cytotoxic, single point] | –
17 | COc1ccc(OC)c(CC(=O)Nc2cc(S(=O)(=O)N3CCCCC3)ccc2C)c1 | inconclusive: 29.1 µM [cytotoxic, single point] | –
18 | O=C(CC1(O)C(=O)N(CCc2ccccc2)c2ccccc21)c1ccccn1 (stereo not given) | – | inactive: 0.0089%
19 | N#Cc1c(NC(=O)c2ccccc2)sc2c1CCC2 | active: 16.4 µM | –
20 | Cc1cccc(Cn2nnc3c2C(=O)c2ccccc2C3=O)c1 | inconclusive: 22.4 µM [cytotoxic, single point] | –
21 | Clc1ccc(OCCn2c(-c3ccco3)nc3ccccc32)cc1 | inconclusive: 12.6 µM [cytotoxic, partial curve, poor fit] | –
22 | CC(C)C(=O)NC(=S)N1CCc2ccccc21 | – | inactive: 4.55%
23 | CCN(Cc1nc2ccccc2c(=O)[nH]1)Cc1nc2cc(OC)c(OC)cc2c(=O)[nH]1 | – | inactive: -0.388%
24 | Cc1cccc(Cn2nnc3c(=O)[nH]c(C4CCCN(C(=O)c5ccc(C(C)(C)C)cc5)C4)nc32)c1 (stereo not given) | inconclusive: 29.1 µM [cytotoxic, single point] | –

Row | SMILES | Potency | activity change, negative = cytotoxic
25 | Cc1ccc2c(CN3CCN(S(=O)(=O)/C=C/c4ccccc4)CC3)cc(=O)oc2c1 | – | inactive: -8.94%
26 | Cc1nn(Cc2cccc(C(=O)NC(C)c3ccc(C(C)(C)C)cc3)c2)c(C)c1[N+](=O)[O-] (stereo not given) | inconclusive: 18.4 µM [cytotoxic, single point] | –
27 | NC(=O)c1nsc(C(=O)N(CC(=O)NC2CCCC2)Cc2ccc3c(c2)OCO3)c1N | inconclusive: 14.6 µM [rising, partial curve, poor fit] | –
28 | COc1cc(CC(=O)OCC(=O)Nc2ccc3c(c2)OCCO3)cc(OC)c1OC | inconclusive: 3.26 µM [rising, partial curve, poor fit] | –
29 | CCOc1ccccc1CNC(=O)C1CCN(Cc2cc3ccccc3n2Cc2ccccc2)CC1 | – | inactive: 0.572%
30 | CCCCc1nc(NCC2CCCO2)c(C#N)c2c1COC(C)(C)C2 (stereo not given) | inconclusive: 29.1 µM [cytotoxic, single point] | –
31 | CCC(C(=O)Nc1cc(OC)ccc1OC)n1nc(-c2ccccc2)c2c(c1=O)CCCC2 (stereo not given) | inconclusive: 29.1 µM [cytotoxic, single point] | –
32 | C/C(=N\NC(=O)c1ccoc1C)c1ccccc1O | active: 14.6 µM | –
33 | CCC1CCc2sc(C(=O)NCC(c3ccccc3OC)N3CCCC3)cc2C1 (stereo not given) | inconclusive: 29.1 µM [cytotoxic, single point] | –
34 | COc1ccc(N(CC(=O)Nc2cc(C)ccc2OC)S(=O)(=O)c2c(C)noc2C)cc1 | inconclusive: 29.1 µM [cytotoxic, single point] | –
35 | Cc1ccc(C(=O)Nc2ccccc2[N+](=O)[O-])cc1S(=O)(=O)N1CCOCC1 | inconclusive: 16.4 µM [cytotoxic, single point] | –
36 | O=C(COCc1cc(-c2ccc3c(c2)OCO3)on1)N1CCN(c2cccc(C(F)(F)F)c2)CC1 | inconclusive: 25.9 µM [cytotoxic, single point] | –
37 | Cc1cccc(-n2nnnc2SCC(=O)NCC2(N3CCOCC3)CCCCC2)c1C | – | inactive: -9.48%
38 | Cc1cccc(Cn2c(SCc3ccc(C(=O)NCc4ccccc4F)cc3)nc3cccnc32)c1 | inconclusive: 20.6 µM [cytotoxic, single point] | –
39 | CN1C(C(=O)NC(C)(C)C)=CC(c2ccc3c(c2)OCO3)=NS1(=O)=O | – | inactive: 9.36%
40 | CCOc1ccc(OCC)c(NC(=O)C2CCCN(c3ncccn3)C2)c1 (stereo not given) | – | inactive: -8.33%
41 | Cc1cc(C)c2c(n1)sc1c(=O)n(CC(=O)c3ccccc3)cnc12 | inconclusive: 32.6 µM [cytotoxic, partial curve, poor fit] | –
42 | C[C@@H]1CN([C@H](C)CO)C(=O)CCCn2nncc2CO[C@@H]1CN(C)S(=O)(=O)c1ccc(-n2cccn2)cc1 | – | inactive: -14.8%
43 | COc1ccc(-c2ccc(C(C)=O)cc2)cc1[C@H]1[C@@H]2C=CCC[C@@]2(C)C(=O)N1Cc1ccccc1 | inconclusive: 29.1 µM [cytotoxic, single point] | –
44 | CC(=O)N1N=C(c2ccc(Br)cc2)CC1c1cn(C)c2ccccc12 (stereo not given) | – | inactive: 19.2%
45 | COc1ccc(-c2cc(-c3ccc(C)cc3)nc(SCc3nnc(-c4ccccc4)o3)c2C#N)cc1OC | inconclusive: 20.6 µM [cytotoxic, single point] | –
46 | COc1cc2c(cc1OC)C1=C(C#N)CCC(=NC(=O)c3ccco3)N1CC2 | inconclusive: 16.4 µM [cytotoxic, partial curve] | –
47 | O=C(Cc1ccccc1F)Nc1nc(-c2ccc(F)c(F)c2)cs1 | inconclusive: 18.4 µM [cytotoxic, single point] | –
48 | CCOc1ccc2c(c1)C(c1ccc(C)cc1)=NNC(c1ccc(C)cc1)=N2 | inconclusive: 18.4 µM [cytotoxic, single point] | –

Row | SMILES | Potency | activity change, negative = cytotoxic
49 | O=C(COc1ccc2c3c(c(=O)oc2c1)CCC3)NCC1CCC(C(=O)O)CC1 (stereo not given) | – | inconclusive: -3.1%
50 | O=C(CCc1ccccc1)NC1(Cc2ccccc2)CCN(CCCc2ccccc2)C1=O (stereo not given) | inconclusive: 29.1 µM [cytotoxic, single point] | –
51 | COc1ccccc1CNC(=O)CSc1nc(=O)n(Cc2ccncc2)c2c1CCC2 | inconclusive: 29.1 µM [rising, single point] | –
52 | O=C1/C(=C/c2ccccc2F)SC(=S)N1CCC(=O)N1CCCCC1CCO (stereo not given) | inconclusive: 16.4 µM [cytotoxic, single point] | –
53 | CCC(C)c1ccc(O)c(NC(=O)c2cccnc2)c1 (stereo not given) | – | inactive: -6.85%
54 | CC1=C(C)CC(C(=O)Nc2cccc(Cl)c2)C(C(=O)O)C1 (stereo not given) | – | inactive: -9.69%
55 | COc1cccc(/C=N/Nc2ncccc2[N+](=O)[O-])c1OC | inconclusive: 20.6 µM [cytotoxic, single point] | –
56 | O=[N+]([O-])c1ccc(N2CCOCC2)cc1NCCCO | inconclusive: 29.1 µM [cytotoxic, single point] | –
57 | CN(CC(=O)Nc1ccc(Cl)cc1)C(=O)CNC(=O)Cc1cccc2ccccc12 | – | inactive: 0%
58 | COc1ccccc1C(=O)NCC(=O)N1CCN(S(=O)(=O)c2ccc3c(c2)OCCO3)CC1 | – | inactive: 5.5%
59 | CC(=O)c1ccccc1NC(=O)CSCc1nc2sc(C)c(C)c2c(=O)[nH]1 | – | inactive: 26.2%
60 | Fc1cccc(CN2CCN(c3nc4nonc4nc3NC3CC3)CC2)c1 | – | inactive: 0.159%
61 | COc1cccc(CN(C)C(=O)CSCC(=O)Nc2cccc(C)c2)c1OC | – | inconclusive: 1.09%
62 | CN(CCOc1ccc(Cl)cc1)C(=O)c1cc([N+](=O)[O-])ccc1N1CCOCC1 | – | inactive: -5.09%
63 | O=C(CN1CCN(S(=O)(=O)c2ccc(C(F)(F)F)cc2)CC1)N1CCNC1=O | inconclusive: 13 µM [cytotoxic, partial curve, poor fit] | –
64 | Clc1ccc(Cn2ncc3c(NCc4ccco4)ncnc32)c(Cl)c1 | inconclusive: 29.1 µM [cytotoxic, single point] | –
65 | COc1ccccc1CNC(=O)C1CC2Cn3c(nc4cc(C)c(C)cc43)C2N1C (stereo not given) | active: 13 µM | –
66 | CCCCOc1ccc(CNC(=O)c2cc3n(n2)CCCN(Cc2ccc(C)cc2)C3=O)cc1 | inconclusive: 18.4 µM [cytotoxic, single point] | –
67 | O=C(Nc1ccc(F)c(Cl)c1)C1Cc2c(-c3ccco3)ccnc2O1 (stereo not given) | inconclusive: 20.6 µM [cytotoxic, single point] | –
68 | COC(=O)c1ccccc1NC(=O)C1CC(c2ccccc2O)=NO1 (stereo not given) | – | inactive: 12.7%
69 | COC(=O)c1ccc(OCCN2CCCCCC2)cc1 | inconclusive: 25.9 µM [rising, partial curve, poor fit] | –
70 | Clc1cccc(N/N=C/c2ccc(N3CCOCC3)s2)c1 | inconclusive: 29.1 µM [cytotoxic, single point] | –

Sorted by SMILES length (descending): some entries from above
Row | SMILES | Potency | activity change, negative = cytotoxic
66 | CCCCOc1ccc(CNC(=O)c2cc3n(n2)CCCN(Cc2ccc(C)cc2)C3=O)cc1 | inconclusive: 18.4 µM [cytotoxic, single point] | –
57 | CN(CC(=O)Nc1ccc(Cl)cc1)C(=O)CNC(=O)Cc1cccc2ccccc12 | – | inactive: 0%
65 | COc1ccccc1CNC(=O)C1CC2Cn3c(nc4cc(C)c(C)cc43)C2N1C (stereo not given) | active: 13 µM | –
51 | COc1ccccc1CNC(=O)CSc1nc(=O)n(Cc2ccncc2)c2c1CCC2 | inconclusive: 29.1 µM [rising, single point] | –
67 | O=C(Nc1ccc(F)c(Cl)c1)C1Cc2c(-c3ccco3)ccnc2O1 (stereo not given) | inconclusive: 20.6 µM [cytotoxic, single point] | –
55 | COc1cccc(/C=N/Nc2ncccc2[N+](=O)[O-])c1OC | inconclusive: 20.6 µM [cytotoxic, single point] | –
